Data taken from ChEMBL document CHEMBL3988442, “University of Dundee, Small-Polar-MMV Screening Library” (2021).

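Viability assay of Plasmodium falciparum sporozoites; the read-out is not stated. The concentration is filed as 10 mM, unlikely as a test dose, so the dose is not known. Higher reads as lower viability (inferred: compounds with an IC50 in retests scored well above the rest). Strong results were mostly tested again. Size under these conditions: about 34,000 compounds, about 280 of them at 50% or above in at least one test.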

Results are given as percent effect.
The record does not define 0% and 100%; most values in the screen are far below 50% and negative numbers occur (in some assays of this library far below -100).
The compounds are a random part of those screened.
Two or more numbers in one place are separate tests of the same structure; such repeats can differ widely.

structure,percent effect
CC(C)N(C)CCCNC(=O)c1cnc(-c2ccccc2)nc1,12.23
COc1ccccc1CN1CCC2(CC1)CC(Oc1ccccn1)CO2 (configuration not stated),4.96
CN(C)CCn1c(=O)oc2ccc(NC(=O)CSc3ccccc3)cc21,-9.069
O=C(c1csnn1)N1CCCC(n2cncn2)C1 (configuration not stated),9.887
CN(C)S(=O)(=O)N1CCC[C@]2(C[C@@H](Oc3ncccc3F)CO2)C1.O=C(O)C(F)(F)F,-3.893
COCC(=O)N1CC(c2csc(NC(C)=O)n2)C1,1.714
[H][C@]12CN(C(=O)c3cccnc3)C[C@@]1([H])OCCN(S(C)(=O)=O)C2,0.3466
CCn1cc(CN2CC3CCCN3C[C@H]2C)c(C)n1 (some centres not stated),-6.991
COc1cccc(CN2CCN(C(=O)Nc3nc(C)ns3)CC2=O)c1,-12.24
CCS(=O)(=O)N1CCC(c2nnc(CN3CCCC3)n2C2CC2)CC1,-3.219
Cc1ccccc1CNC(=O)Cc1c(C)nc2cc(=O)[nH]n2c1C,5.276
CCOc1ncccc1NC(=O)C1CCS(=O)(=O)C1 (configuration not stated),4.963
CCc1cc(N2CCC(N3CCSCC3)CC2)n2nccc2n1,-21.08
Cn1cc(CN2CCCC23CCN(C(=O)c2cccs2)CC3)cn1.O=C(O)C(F)(F)F,-15.33
Cc1ccccc1C(=O)N1CC[C@@H](N(C)C)[C@@H]1Cc1cnn(C)c1.O=C(O)C(F)(F)F,-3.866
CC(C)c1nc2c(n1C)CCN(CC(=O)Nc1nncs1)C2,-7.455 & -7.617 & 8.934
Cc1ncsc1C(=O)NCc1cccnc1N(C)CCc1ccccn1,-4.135
CN1CCC(Cc2cc(Nc3ccccn3)ncn2)CC1,2.617
CCc1nnc2n1CCN(Cc1cc(Cl)c3c(c1)OCCO3)C2,3.664
CCCNC(=O)CNc1cc(C(=O)N2CCSCC2)ccc1C,-9.074
CCS(=O)(=O)N1CCC2(CC1)CCn1c(-c3cnn(C)c3)cnc12.O=C(O)C(F)(F)F,-14.56
CC(C)Nc1ncnc2c1CCN(C(=O)CC1CCCC1)CC2,-3.21
[H][C@]12CCN(C(=O)c3cnoc3C)[C@@]1([H])CCC(=O)N2CC1CCOCC1,5.199
Cc1ccc(C(=O)N2CCc3ncnc(-c4cnn(C)c4)c3CC2)cn1.O=C(O)C(F)(F)F,1.491
Cc1cc(C[C@@H]2COC[C@H]2NCc2ccc(C(C)C)cc2)on1.O=C(O)CC(O)(CC(=O)O)C(=O)O,0.8938 & -1.043 & -11.16
CCOc1cccc(NS(=O)(=O)c2cc(C)c(C(=O)O)s2)c1,-7.843
Cc1nncn1CCNC(=O)C(C)(C)c1cccc(F)c1,8.788
CCn1c(CC2CCN(S(=O)(=O)N3CCCCC3)CC2)nn(C)c1=O,-14.62
COc1c(CNCc2cccc(CN(C)C)c2)c(C)nn1C.Cl,12.16
COCc1ccccc1CNCc1c(C)nn(C)c1N(C)C,-0.32
COc1ccc(CCN2CCCC(Cn3nc(C)nc3C)C2)cc1 (configuration not stated),-8.115
CCc1nc(CN2CCCN(Cc3cnn(C)c3)CC2)no1,-9.563
O=S(=O)(c1ccccc1Cl)N1CCc2nc(C3CCNCC3)ncc2C1,-6.832
Cc1ccc2cc(C(=O)N3CCC(Nc4cccnn4)CC3)[nH]c2c1,2.061
CCC(C)N(Cc1cccnc1)Cc1ccc2c(c1)OCCO2 (configuration not stated),-9.967
Cc1ccc(CNC(=O)Cn2ncc3c2c(C)nn3C)cc1,-6.14
Cc1cccc(N2CCC(N3CCC4(CCCNC4=O)C3)CC2)c1C (configuration not stated),6.529
O=C(O)C(F)(F)F.[H][C@@]12CCN(S(=O)(=O)CC)C[C@]1([H])OCCN(Cc1cccnc1)C2=O,3.03
O=C(COCC1CC1)N1CCCC(n2cncn2)C1 (configuration not stated),3.68
COc1ncc(CN(C)C2CCN(C(C)C)CC2)cn1,-3.684
Cn1cc(C2CCCN2C(=O)CCc2cnn(-c3ccccc3)c2)cn1 (configuration not stated),8.099
Cc1ccc(=O)n(CC2(O)CCN(Cc3cnn(C)c3)CC2)n1,7.327
[H][C@@]12CN(C(=O)NC(C)C)C[C@]1(C(=O)NC)CCCN2c1ncccn1,-2.793
Cc1cc(C)n(CC(=O)N2CCC(NS(C)(=O)=O)CC2)n1,-1.649
CC(C)c1noc(CCC(=O)N2CCN(Cc3ccncc3)CC2)n1,16.36
Cc1nc(=O)c2ccccc2n1C1=CCN(CC(=O)NC(C)C)CC1,3.805
[H][C@]12CCN(C(=O)c3cc(C)on3)CC[C@@]1([H])S(=O)(=O)N(CCC(C)C)C2,-2.014
NC(=O)c1ccccc1Oc1cnc(C2CCCN2)cn1 (configuration not stated),-8.492
c1ccc(Oc2nccnc2C2CCN(C3CCOCC3)CC2)cc1,-1.873
CCS(=O)(=O)CC(=O)NC(c1ccccc1)C1CCCCC1 (configuration not stated),-9.583
CS(=O)(=O)NCc1cn2c(n1)CN(C(=O)c1ccc[nH]1)CC2,-21.11
[H][C@]12CC[C@]([H])(CN(C(=O)c3cnccn3)C1)N(Cc1cnn(CC)c1)C2,1.243
Cc1n[nH]c(C)c1C1COCCN1C(=O)c1ccc(Cl)o1 (configuration not stated),3.875
Cn1cnnc1C1CCCN(C(=O)CCc2ccc3c(c2)OCO3)C1 (configuration not stated),-1.784
O=C(O)C(F)(F)F.O=C(c1n[nH]c2c1CCN(Cc1nccs1)C2)N1CCCC1,14.53
O=C(O)c1cc(/C=C/c2cccc3ccccc23)ncn1,-28.19
Cc1nc(C)n(CC2CCCN2Cc2ncc(-c3ccccc3)o2)n1 (configuration not stated),3.578
Cc1ncc2c(n1)CN(CCCOc1ccc(C#N)cc1)CC2,11.58
COc1cccc2c1CCC2NC(=O)NCc1csc(N(C)C)n1 (configuration not stated),4.929
CN(C)C(=O)CCc1cncc(C2CCCN2Cc2ccccn2)n1 (configuration not stated),1.339
COc1c(CNCc2ccc(Cn3cccn3)cc2)c(C)nn1C,-11.36
COc1ccc(CNC(C)c2ccc(Cl)c(Cl)c2)c(OC)c1OC (configuration not stated),-13.97
CS(=O)(=O)c1ccc(CNC(=O)Nc2cn[nH]c2)cc1,10.4
CSc1cccc(CNC(=O)[C@H]2CNC[C@@H](C(=O)N3CCOCC3)C2)c1,-14.62
Cc1ccc(C(=O)N2CCC3(CC2)COC(COc2cccnc2)C3)o1.O=C(O)C(F)(F)F (configuration not stated),5.353
COCCN1C(=O)CC(N2CCN(c3ccc(OC)cc3)CC2)C1=O (configuration not stated),-1.792
OC1CCCOC12CCN(CCCOc1ccccc1F)CC2 (configuration not stated),2.153
CC(=O)N1CCN(Cc2ccc(C)o2)CC2(CC(=O)N(C)C2)C1.O=C(O)C(F)(F)F (configuration not stated),-7.762
O=C(O)C(F)(F)F.O=C(O)C(F)(F)F.[H][C@@]12C[C@H](C(=O)Nc3cccnc3)[C@@]([H])(CN(CCC(C)C)C1)O2,6.787
O=C(NCc1ccoc1)Nc1cc(C(F)(F)F)c[nH]c1=O,17.63
Cc1nc(C2CCCN(C(=O)CCCn3ccnc3C)C2)no1 (configuration not stated),-3.434
O=C(NCCCO)c1cc(-c2ccc3c(c2)CCO3)n[nH]1,-29.25 & -35.25
Cc1cnn(CC2CCCN2CCc2nc3ccccc3c(=O)[nH]2)c1 (configuration not stated),3.701
Cc1cc(Cl)ccc1-n1ncc(C(=O)N(C)CCc2ccccn2)c1N,-9.137
O=C1CSC(C(F)(F)F)c2c(O)nn(C3CCCCC3)c2N1 (configuration not stated),0.2725
CC(=O)c1ccc(CNC(=O)c2cc(C#N)cn2C)nc1C,-1.695
O=C(O)C(F)(F)F.[H][C@@]12COC[C@@H](CC(=O)N3CCCCO3)[C@]1([H])CN(Cc1ccc(F)cc1)C2,-12.72
O=C(Nc1cn[nH]c1)c1ccc(O)nc1,4.287
CCc1nc(C2CCCN2CCc2ccccn2)no1 (configuration not stated),11.76
Cc1ccc(-c2cc(CNC(=O)N3CCC(N(C)C)CC3)on2)cc1,10.79 & -13.99 & -22.8
CN1CCCn2c(nc(CNC(=O)c3ccsc3)cc2=O)C1.O=C(O)C(F)(F)F,-8.613
Cc1nc(C)n(CC2CN(Cc3ccc4c(c3)OCCO4)CCO2)n1 (configuration not stated),-7.63
CCc1noc(CN(C)CC(c2cccs2)N2CCOCC2)n1 (configuration not stated),7.074
[H][C@]12COC[C@@H](NS(C)(=O)=O)[C@@]1([H])CN(Cc1ccco1)C2,4.216

Once more, the final 5:

- Cc1ccc(-c2cc(CNC(=O)N3CCC(N(C)C)CC3)on2)cc1 : 10.79% & -13.99% & -22.8%
- CN1CCCn2c(nc(CNC(=O)c3ccsc3)cc2=O)C1.O=C(O)C(F)(F)F : -8.613%
- Cc1nc(C)n(CC2CN(Cc3ccc4c(c3)OCCO4)CCO2)n1 (configuration not stated) : -7.63%
- CCc1noc(CN(C)CC(c2cccs2)N2CCOCC2)n1 (configuration not stated) : 7.074%
- [H][C@]12COC[C@@H](NS(C)(=O)=O)[C@@]1([H])CN(Cc1ccco1)C2 : 4.216%